# From the supplement of paper PMC10849652
# Protein sequences, listed by entry. Tags and fused reporters are not part of them. Lines headed by an entry give the natural chain unless they say otherwise; changes in a name come on top.
# UniProt Q6UX04: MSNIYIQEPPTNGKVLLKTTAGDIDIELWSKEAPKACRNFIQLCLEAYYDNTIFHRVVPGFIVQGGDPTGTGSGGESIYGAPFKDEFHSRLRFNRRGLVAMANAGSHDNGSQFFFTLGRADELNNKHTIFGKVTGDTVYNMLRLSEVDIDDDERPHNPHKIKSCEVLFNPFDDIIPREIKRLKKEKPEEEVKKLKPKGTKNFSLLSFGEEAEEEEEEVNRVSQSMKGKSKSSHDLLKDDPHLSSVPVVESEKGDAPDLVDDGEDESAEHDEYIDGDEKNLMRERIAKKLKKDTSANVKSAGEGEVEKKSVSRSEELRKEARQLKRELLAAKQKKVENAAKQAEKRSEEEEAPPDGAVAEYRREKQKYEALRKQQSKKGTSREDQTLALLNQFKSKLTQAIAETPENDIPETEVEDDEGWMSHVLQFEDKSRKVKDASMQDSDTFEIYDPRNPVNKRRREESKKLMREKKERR
# UniProt Q9P021, whole entry, looked up: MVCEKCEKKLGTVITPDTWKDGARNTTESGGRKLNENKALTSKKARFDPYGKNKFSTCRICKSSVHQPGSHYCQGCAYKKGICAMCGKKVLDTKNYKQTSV
# UniProt Q08257: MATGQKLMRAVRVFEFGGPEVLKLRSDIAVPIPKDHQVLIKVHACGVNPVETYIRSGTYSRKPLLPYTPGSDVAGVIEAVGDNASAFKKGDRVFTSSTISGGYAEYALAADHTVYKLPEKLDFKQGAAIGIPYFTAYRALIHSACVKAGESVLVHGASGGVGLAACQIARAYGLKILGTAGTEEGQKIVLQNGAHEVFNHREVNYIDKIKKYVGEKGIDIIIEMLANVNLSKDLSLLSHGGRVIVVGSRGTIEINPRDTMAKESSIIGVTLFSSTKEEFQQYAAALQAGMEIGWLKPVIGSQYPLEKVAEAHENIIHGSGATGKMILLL
# UniProt Q7Z7A3: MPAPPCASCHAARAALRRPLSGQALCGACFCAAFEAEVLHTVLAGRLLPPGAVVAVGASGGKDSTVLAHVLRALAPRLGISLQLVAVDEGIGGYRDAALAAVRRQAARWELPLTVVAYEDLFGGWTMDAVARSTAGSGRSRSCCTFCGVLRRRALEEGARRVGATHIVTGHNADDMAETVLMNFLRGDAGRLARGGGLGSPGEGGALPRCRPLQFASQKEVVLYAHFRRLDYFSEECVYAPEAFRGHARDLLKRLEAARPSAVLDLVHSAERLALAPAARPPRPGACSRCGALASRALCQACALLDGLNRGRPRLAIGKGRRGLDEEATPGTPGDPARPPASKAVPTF
# UniProt Q6UXH1: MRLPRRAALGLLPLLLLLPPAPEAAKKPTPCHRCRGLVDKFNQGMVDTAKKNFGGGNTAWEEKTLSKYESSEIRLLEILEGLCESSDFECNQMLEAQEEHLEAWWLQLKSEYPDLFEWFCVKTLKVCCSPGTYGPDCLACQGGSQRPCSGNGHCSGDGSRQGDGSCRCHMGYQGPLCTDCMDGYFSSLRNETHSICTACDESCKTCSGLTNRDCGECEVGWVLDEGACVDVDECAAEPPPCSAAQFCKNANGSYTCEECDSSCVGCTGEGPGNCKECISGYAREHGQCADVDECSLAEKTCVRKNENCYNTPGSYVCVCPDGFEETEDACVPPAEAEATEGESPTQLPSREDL
# UniProt Q2NKJ3: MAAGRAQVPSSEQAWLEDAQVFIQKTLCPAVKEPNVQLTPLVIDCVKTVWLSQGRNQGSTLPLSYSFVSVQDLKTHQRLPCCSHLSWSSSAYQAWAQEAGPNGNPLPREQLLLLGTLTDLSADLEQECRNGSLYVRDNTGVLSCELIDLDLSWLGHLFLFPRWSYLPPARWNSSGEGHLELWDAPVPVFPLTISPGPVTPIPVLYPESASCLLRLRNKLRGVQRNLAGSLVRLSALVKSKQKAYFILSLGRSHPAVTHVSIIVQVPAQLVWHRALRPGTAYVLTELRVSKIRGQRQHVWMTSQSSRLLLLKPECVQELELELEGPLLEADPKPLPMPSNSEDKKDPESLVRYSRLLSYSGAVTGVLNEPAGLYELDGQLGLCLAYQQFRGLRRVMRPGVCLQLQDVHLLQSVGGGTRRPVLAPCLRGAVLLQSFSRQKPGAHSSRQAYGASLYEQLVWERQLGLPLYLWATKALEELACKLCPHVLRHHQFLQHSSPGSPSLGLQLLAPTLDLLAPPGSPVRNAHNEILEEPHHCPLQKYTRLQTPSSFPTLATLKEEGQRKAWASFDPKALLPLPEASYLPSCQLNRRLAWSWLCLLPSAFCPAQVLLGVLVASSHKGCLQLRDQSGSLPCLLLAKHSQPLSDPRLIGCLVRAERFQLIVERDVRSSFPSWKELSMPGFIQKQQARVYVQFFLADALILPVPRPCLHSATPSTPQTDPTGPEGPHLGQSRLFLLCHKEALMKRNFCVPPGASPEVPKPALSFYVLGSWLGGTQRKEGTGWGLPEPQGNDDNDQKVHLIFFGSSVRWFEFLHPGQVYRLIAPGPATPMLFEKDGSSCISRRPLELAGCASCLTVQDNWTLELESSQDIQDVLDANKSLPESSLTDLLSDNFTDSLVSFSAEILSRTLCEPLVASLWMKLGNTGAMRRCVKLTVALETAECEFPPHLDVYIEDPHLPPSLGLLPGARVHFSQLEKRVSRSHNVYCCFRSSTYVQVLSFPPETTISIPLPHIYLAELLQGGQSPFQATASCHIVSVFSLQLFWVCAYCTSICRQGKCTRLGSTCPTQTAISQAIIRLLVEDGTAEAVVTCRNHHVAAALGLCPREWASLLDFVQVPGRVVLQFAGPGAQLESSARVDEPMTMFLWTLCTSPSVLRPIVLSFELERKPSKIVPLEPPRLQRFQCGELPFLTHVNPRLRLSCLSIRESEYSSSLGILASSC
# UniProt P02511: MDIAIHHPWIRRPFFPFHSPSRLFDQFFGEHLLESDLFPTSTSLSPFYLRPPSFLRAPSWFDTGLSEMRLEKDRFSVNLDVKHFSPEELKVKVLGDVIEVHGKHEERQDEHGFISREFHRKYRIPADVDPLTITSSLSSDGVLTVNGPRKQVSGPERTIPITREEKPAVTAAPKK
# UniProt O75390: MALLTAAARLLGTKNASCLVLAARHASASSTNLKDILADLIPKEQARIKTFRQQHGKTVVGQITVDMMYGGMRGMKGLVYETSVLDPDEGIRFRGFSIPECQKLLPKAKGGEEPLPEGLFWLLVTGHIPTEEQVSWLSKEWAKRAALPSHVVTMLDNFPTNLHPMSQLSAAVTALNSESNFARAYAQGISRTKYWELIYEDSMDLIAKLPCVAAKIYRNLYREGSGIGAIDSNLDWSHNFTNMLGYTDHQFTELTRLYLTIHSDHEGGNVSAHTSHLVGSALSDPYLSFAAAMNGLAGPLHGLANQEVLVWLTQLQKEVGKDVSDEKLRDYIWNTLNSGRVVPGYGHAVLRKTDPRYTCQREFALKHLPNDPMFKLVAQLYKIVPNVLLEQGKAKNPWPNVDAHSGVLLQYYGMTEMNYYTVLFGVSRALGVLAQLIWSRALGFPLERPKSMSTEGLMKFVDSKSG
# UniProt P49711: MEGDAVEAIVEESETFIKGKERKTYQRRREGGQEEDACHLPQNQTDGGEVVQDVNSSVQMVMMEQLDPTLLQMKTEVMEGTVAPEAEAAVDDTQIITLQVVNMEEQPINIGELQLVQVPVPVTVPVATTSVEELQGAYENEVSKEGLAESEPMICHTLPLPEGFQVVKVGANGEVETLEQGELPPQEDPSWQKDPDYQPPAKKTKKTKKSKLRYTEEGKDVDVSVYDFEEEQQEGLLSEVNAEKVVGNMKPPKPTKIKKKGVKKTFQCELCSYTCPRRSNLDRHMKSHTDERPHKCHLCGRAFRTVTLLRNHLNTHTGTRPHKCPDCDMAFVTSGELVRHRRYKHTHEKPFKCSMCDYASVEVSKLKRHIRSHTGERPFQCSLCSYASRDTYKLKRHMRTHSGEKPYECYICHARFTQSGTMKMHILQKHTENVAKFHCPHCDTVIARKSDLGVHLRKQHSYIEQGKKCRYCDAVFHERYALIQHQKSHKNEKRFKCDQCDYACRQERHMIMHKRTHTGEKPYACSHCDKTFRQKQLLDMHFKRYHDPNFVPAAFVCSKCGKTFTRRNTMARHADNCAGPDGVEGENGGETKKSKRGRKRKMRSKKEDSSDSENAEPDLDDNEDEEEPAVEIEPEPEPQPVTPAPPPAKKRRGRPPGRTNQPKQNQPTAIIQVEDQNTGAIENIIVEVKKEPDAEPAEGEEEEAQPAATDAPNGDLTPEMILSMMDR
# UniProt Q13617, whole entry, looked up: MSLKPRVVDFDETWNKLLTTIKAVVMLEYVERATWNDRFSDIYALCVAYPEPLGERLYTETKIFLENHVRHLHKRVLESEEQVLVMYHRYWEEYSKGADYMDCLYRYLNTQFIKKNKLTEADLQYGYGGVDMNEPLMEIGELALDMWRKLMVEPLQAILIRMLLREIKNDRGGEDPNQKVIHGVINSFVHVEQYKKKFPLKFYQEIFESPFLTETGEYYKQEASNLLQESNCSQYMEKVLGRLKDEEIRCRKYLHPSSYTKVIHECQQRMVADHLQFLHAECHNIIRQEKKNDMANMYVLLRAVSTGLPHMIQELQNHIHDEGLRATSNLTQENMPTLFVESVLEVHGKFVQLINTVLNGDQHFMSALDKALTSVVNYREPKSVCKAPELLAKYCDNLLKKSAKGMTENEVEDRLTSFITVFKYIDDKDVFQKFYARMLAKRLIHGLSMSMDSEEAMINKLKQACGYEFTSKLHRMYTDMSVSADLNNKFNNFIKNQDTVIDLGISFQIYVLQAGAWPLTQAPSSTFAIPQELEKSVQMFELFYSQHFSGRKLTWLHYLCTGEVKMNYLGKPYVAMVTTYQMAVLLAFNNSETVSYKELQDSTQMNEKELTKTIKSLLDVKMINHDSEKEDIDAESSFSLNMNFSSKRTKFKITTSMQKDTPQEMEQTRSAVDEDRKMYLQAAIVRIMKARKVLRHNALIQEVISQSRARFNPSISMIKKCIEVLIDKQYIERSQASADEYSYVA
# UniProt O60716: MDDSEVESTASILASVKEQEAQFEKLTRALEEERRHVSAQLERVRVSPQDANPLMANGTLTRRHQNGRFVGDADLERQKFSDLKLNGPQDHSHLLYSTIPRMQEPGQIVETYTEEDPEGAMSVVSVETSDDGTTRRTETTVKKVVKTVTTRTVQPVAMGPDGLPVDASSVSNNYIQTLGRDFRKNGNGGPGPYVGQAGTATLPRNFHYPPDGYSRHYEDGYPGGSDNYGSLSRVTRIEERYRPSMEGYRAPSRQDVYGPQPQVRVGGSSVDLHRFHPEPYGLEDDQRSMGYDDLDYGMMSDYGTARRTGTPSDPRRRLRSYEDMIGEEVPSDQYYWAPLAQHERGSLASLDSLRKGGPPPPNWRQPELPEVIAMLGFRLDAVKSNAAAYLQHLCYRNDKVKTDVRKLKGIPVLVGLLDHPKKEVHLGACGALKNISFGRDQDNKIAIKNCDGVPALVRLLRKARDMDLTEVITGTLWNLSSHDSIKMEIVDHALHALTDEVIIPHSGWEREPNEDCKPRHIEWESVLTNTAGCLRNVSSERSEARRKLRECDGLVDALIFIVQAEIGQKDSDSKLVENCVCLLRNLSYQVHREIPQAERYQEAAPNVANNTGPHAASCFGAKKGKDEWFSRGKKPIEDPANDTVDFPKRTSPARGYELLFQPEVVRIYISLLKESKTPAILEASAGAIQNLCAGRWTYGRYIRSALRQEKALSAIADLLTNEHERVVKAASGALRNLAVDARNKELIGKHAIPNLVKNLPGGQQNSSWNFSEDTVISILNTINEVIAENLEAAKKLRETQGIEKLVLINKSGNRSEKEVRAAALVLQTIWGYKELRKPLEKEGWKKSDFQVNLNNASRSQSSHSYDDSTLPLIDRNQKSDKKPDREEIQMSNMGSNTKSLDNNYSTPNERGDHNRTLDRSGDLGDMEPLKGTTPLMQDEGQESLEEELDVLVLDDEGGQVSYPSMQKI
# UniProt Q96HD1: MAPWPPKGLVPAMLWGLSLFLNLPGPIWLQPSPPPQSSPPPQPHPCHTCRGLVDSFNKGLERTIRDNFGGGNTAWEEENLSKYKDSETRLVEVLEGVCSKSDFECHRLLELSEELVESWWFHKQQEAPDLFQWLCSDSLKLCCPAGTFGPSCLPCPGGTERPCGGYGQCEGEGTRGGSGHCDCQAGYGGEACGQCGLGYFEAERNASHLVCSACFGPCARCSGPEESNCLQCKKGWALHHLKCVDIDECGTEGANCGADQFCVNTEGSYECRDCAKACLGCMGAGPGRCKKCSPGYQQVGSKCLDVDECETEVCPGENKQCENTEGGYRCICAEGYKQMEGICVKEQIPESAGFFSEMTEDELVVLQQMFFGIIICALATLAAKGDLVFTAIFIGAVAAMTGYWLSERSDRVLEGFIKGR
# UniProt P67870, whole entry, looked up: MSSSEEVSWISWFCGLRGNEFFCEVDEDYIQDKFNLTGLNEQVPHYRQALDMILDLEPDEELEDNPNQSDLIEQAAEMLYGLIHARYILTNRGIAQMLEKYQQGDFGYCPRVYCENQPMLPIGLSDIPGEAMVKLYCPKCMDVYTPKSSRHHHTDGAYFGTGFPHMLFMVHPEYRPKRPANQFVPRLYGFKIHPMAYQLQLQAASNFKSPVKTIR
# Some of the results follow.
# Columns and labels:
# Experiment in all cases: log2 fold change, soluble protein after heating vs DMSO (PISA); higher = thermal stabilisation; K562 lysate, 10 uM; active = over 0.2 and 3.5 SD of the protein, either way, in both replicates (recomputed)
# erlotinib = compound: C#Cc1cccc(Nc2ncnc3cc(OCCOC)c(OCCOC)cc23)c1 [erlotinib]
# In short: (§1)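 To prepare the extract, K562 pellets were dounce-homogenised in PBS pH 7.4 with 1 mM MgCl2, giving crude material at 1 mg/mL protein. This was treated with 10 μM compound for 30 min, then heated in aliquots for 3 min over 48°C-58°C before pooling and addition of NP-40 to 0.5% at 4°C. Centrifugation at 21,000xg for 90 min left soluble protein in the supernatant, which TMTpro 16plex LC-MS/MS quantified with equalised channel sums. Results are log-two fold changes in thermal stability compared with solvent controls, from duplicates.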
# [1] = compound: C/C(=N\NC(=O)C1=CC(=CC=C1)S(=O)(=O)N2CCOCC2)/C3=C(C=CC(=C3)Cl)O
# In short: as §1
# [2] = compound: C1=CC(=CC=C1C2=NC3=C(N2)C=C(C=C3)C(=O)N)OC4=CC=C(C=C4)Cl
# In short: as §1
# [3] = compound: C1=CC2=C(C=CC(=C2)/C=C\3/C(=O)NC(=NCC4=CC=CS4)S3)N=C1
# In short: as §1
# [4] = compound: C1=CC2=NC=CN=C2C=C1/C=C/3\C(=O)NC(=O)S3
# In short: as §1
# [5] = compound: C1=CC=C(C=C1)C2=NC(=C(N2)C3=CC=NC=C3)C4=CC(=C(C=C4)Cl)O
# In short: as §1
# [6] = compound: C1=CC=C2C(=C1)C3=NNC4=CC=CC(=C43)C2=O
# In short: as §1
# [7] = compound: C1CCN(C1)C(=O)NC2=CC=CC(=C2)NC3=NC=C(C(=N3)NCCC4=CN=CN4)Br
# In short: as §1
# [8] = compound: C1CN(CCC1(CC2=CC=C(C=C2)Cl)N)C3=NC=NC4=C3C=CN4
# In short: as §1
# IRAK-1-4 Inhibitor I = compound: C1COCCN1CCN2C3=CC=CC=C3N=C2NC(=O)C4=CC(=CC=C4)[N+](=O)[O-] [IRAK-1-4 Inhibitor I]
# In short: as §1
Target,log2 fold change (erlotinib),log2 fold change [1],log2 fold change [2],log2 fold change [3],log2 fold change [4],log2 fold change [5],log2 fold change [6],log2 fold change [7],log2 fold change [8],log2 fold change (IRAK-1-4 Inhibitor I)
CWC27 (UniProt Q6UX04),inactive: -0.001,inactive: 0.001,inactive: 0.001,inactive: 0.019,inactive: -0.005,inactive: -0.006,inactive: -0.015,inactive: -0.015,inactive: 0.013,inactive: 0.017
CTSB (UniProt P07858),inactive: -0.001,inactive: -0.036,inactive: 0.015,inactive: -0.007,inactive: -0.013,inactive: 0.004,inactive: 0.015,inactive: -0.002,inactive: 0.025,inactive: 0.026
CRIPT (UniProt Q9P021),inactive: 0.012,inactive: -0.027,inactive: -0.051,inactive: -0.008,inactive: 0.057,inactive: -0.018,inactive: 0.014,inactive: 0.002,inactive: 0.019,inactive: 0.042
CRYZ (UniProt Q08257),inactive: -0.003,inactive: -0.026,inactive: 0.047,inactive: 0.002,inactive: 0.024,inactive: 0.003,inactive: 0.007,inactive: 0.003,inactive: 0.009,inactive: 0.023
CXorf56 (UniProt Q9H5V9),inactive: -0.004,inactive: 0.033,inactive: 0.026,inactive: -0.037,inactive: -0.048,inactive: 0.034,inactive: -0.004,inactive: -0.02,inactive: 0.01,inactive: 0.025
CTU1 (UniProt Q7Z7A3),inactive: 0.024,inactive: -0.09,inactive: 0.044,inactive: 0.002,inactive: 0.005,inactive: 0.011,inactive: -0.06,inactive: -0.025,inactive: 0.037,inactive: 0.007
CUX1 isoform 3 (UniProt P39880),inactive: -0.015,inactive: -0.017,inactive: -0.007,inactive: 0.03,inactive: -0.049,inactive: -0.039,inactive: 0.003,inactive: -0.004,inactive: 0.07,inactive: 0.014
CT47B1 (UniProt P0C2W7),inactive: 0.128,inactive: -0.1,inactive: 0.066,inactive: 0.113,inactive: -0.301,inactive: 0.002,inactive: -0.221,inactive: -0.022,inactive: 0.031,inactive: -0.037
CREB1 (UniProt P16220),inactive: -0.043,inactive: 0.026,inactive: -0.031,inactive: 0.029,inactive: 0.003,inactive: 0.044,inactive: 0.079,inactive: 0.077,inactive: -0.03,inactive: -0.013
CUL1 (UniProt Q13616),inactive: -0.011,inactive: 0.006,inactive: 0.026,inactive: 0.01,inactive: 0.009,inactive: -0.011,inactive: 0.017,inactive: 0,inactive: -0.006,inactive: -0.013
CYFIP2 (UniProt Q96F07),inactive: -0.005,inactive: 0.142,inactive: 0.026,inactive: 0.037,inactive: -0.001,inactive: 0.022,inactive: -0.002,inactive: -0.027,inactive: 0.008,inactive: 0.007
CYB5R2 (UniProt Q6BCY4),inactive: -0.031,inactive: -0.062,inactive: 0.055,inactive: -0.045,inactive: -0.014,inactive: -0.021,inactive: 0.012,inactive: -0.057,inactive: 0.026,inactive: 0.013
CRELD2 isoform 5 (UniProt Q6UXH1),inactive: 0.06,inactive: -0.053,inactive: -0.033,inactive: -0.021,inactive: -0.018,inactive: 0.045,inactive: -0.046,inactive: -0.025,inactive: 0.004,inactive: -0.002
CTC1 (UniProt Q2NKJ3),inactive: 0.047,inactive: -0.023,inactive: -0.084,inactive: -0.069,inactive: 0.014,inactive: -0.012,inactive: -0.066,inactive: 0.053,inactive: 0.033,inactive: 0.053
CRYAB (UniProt P02511),inactive: 0.034,inactive: 0.018,inactive: 0.028,inactive: 0.014,inactive: 0.032,inactive: 0.094,inactive: 0.048,inactive: -0.088,inactive: 0.102,inactive: 0.114
CS (UniProt O75390),inactive: -0.033,inactive: 0.08,inactive: -0.002,inactive: -0.031,inactive: -0.021,inactive: -0.011,inactive: -0.014,inactive: -0.047,inactive: 0.015,inactive: 0.025
CRKL (UniProt P46109),inactive: -0.002,inactive: 0.042,inactive: 0.029,inactive: -0.006,inactive: -0.011,inactive: -0.012,inactive: 0.002,inactive: 0.017,inactive: 0.014,inactive: 0.022
CTCF (UniProt P49711),inactive: -0.002,inactive: -0.066,inactive: -0.016,inactive: -0.096,inactive: -0.022,inactive: -0.001,inactive: -0.016,inactive: 0.046,inactive: 0.011,inactive: 0.01
CUL2 isoform 2 (UniProt Q13617),inactive: 0.002,inactive: -0.044,inactive: -0.001,inactive: 0.022,inactive: 0.012,inactive: -0.032,inactive: 0.019,inactive: -0.011,inactive: 0.007,inactive: -0.013
CTU2 (UniProt Q2VPK5),inactive: -0.002,inactive: -0.007,inactive: 0.008,inactive: -0.012,inactive: -0.013,inactive: -0.011,inactive: 0.035,inactive: 0,inactive: -0.003,inactive: -0.02
CTTN isoform 2 (UniProt Q14247),inactive: -0.03,inactive: 0.026,inactive: 0.007,inactive: 0.02,inactive: -0.018,inactive: 0.037,inactive: 0.026,inactive: 0.003,inactive: 0.002,inactive: 0.016
CYP20A1 (UniProt Q6UW02),inactive: -0.002,inactive: -0.037,inactive: -0.055,inactive: -0.029,inactive: -0.012,inactive: -0.02,inactive: -0.064,inactive: 0.028,inactive: 0,inactive: 0.024
CTNND1 isoform 3 (UniProt O60716),inactive: -0.002,inactive: -0.039,inactive: -0.024,inactive: -0.045,inactive: 0.003,inactive: 0.087,inactive: -0.093,inactive: 0.009,inactive: 0.022,inactive: 0.004
CT55 (UniProt Q8WUE5),inactive: 0.082,inactive: -0.018,inactive: -0.007,inactive: 0,inactive: 0.05,inactive: 0.036,inactive: -0.014,inactive: -0.008,inactive: -0.038,inactive: 0.005
CRELD1 isoform 2 (UniProt Q96HD1),inactive: -0.031,inactive: -0.166,inactive: 0.05,inactive: -0.094,inactive: 0.049,inactive: 0.008,inactive: 0.096,inactive: -0.06,inactive: -0.064,inactive: 0.087
CREBBP (UniProt Q92793),inactive: -0.023,inactive: -0.045,inactive: -0.058,inactive: -0.014,inactive: -0.017,inactive: 0.005,inactive: -0.004,inactive: -0.013,inactive: 0.082,inactive: 0
CROCC (UniProt Q5TZA2),inactive: -0.046,inactive: -0.019,inactive: -0.11,inactive: -0.116,inactive: 0.047,inactive: 0.159,inactive: -0.002,inactive: 0.002,inactive: 0.008,inactive: 0.047
CSNK2B (UniProt P67870),inactive: 0.045,inactive: -0.107,inactive: -0.039,inactive: 0.151,active: 0.33,inactive: -0.012,inactive: 0.198,inactive: 0.145,inactive: 0.041,inactive: 0.021
CTSZ (UniProt Q9UBR2),inactive: -0.018,inactive: 0.008,inactive: 0.032,inactive: -0.008,inactive: 0.011,inactive: 0,inactive: 0.021,inactive: -0.007,inactive: 0.029,inactive: -0.021

# An excerpt from above with just log2 fold change (erlotinib):
Target	log2 fold change (erlotinib)
CUX1 isoform 3 (UniProt P39880)	inactive: -0.015
CT47B1 (UniProt P0C2W7)	inactive: 0.128
